# Values from PubChem BioAssay AID1259274 (Sanger Institute, 2017)
# Purpose: 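Kinases RKO cells need to grow, alone or with anchor drugs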 (primary screen)
# System: human RKO colorectal cancer cells
# Reagents: siRNA pool against human genes
# Challenge: anchor drugs BYL719 at 1 µM, cetuximab at 5 µg/ml or trametinib at 10 nM; DMSO vehicle as the no-drug arm
# Measured: 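Viability as fraction of non-targeting pool 2 control, averaged across replicates, robust z-score for single knock-down, and a combination synergy score per anchor drug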
# Scale: viability z-score, siRNA alone: higher = more viable cells; low values mean essential gene; viability, siRNA alone, vehicle: higher = more viable cells; synergy score with BYL719 and synergy score with Trametinib and synergy score with Cetuximab: higher = stronger combined killing with the drug
# Hit rule: 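Essential when the robust viability z-score with siRNA only falls below -3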
# Meaning of the calls: active = essential when knocked down alone; inactive = no change alone
# Here is a random part of 794 deposited reagents. Of all reagents, 11 (1.4%) were called active. 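Calls rest on knock-down without drug only; synergy scores with anchor drugs were not used for the essential call.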 Entries without a mark were called inactive. Viability is capped at 1. Reagent sequences are not shown. The record does not give: the amount of reagent, the time to read-out.
gene,PubChem SID,"viability z-score, siRNA alone","viability, siRNA alone, vehicle (fraction of control)",synergy score with BYL719,synergy score with Trametinib,synergy score with Cetuximab
PIK3R5,SID152147687,-1.26,0.79,0.0316,-0.341,-0.094
MYO3B,SID152152883,-0.338,0.869,-0.119,-0.17,-0.0633
SYNCRIP,SID134320219,0.00973,0.899,0.132,0.00811,0.0838
MAPKAPK5,SID56478947,0.569,0.947,0.0188,-0.219,0.0345
IRAK3,SID56478864,-1.4,0.778,-0.0246,-0.0314,-0.0815
IP6K3,SID135621241,-0.953,0.816,-0.0576,-0.124,-0.0943
AK2,SID56479162,-0.206,0.88,-0.102,-0.147,0.0101
CDK8,SID56478602,-0.617,0.845,-0.244,-0.315,-0.155
HIPK3,SID152151658,1.19,1,0.0157,-0.349,0
TP53RK,SID135620611,-0.205,0.88,-0.143,-0.151,-0.106
MAP3K11,SID152156459,0.634,0.952,0.0635,-0.0248,-0.0477
TAF1L,SID152155360,-0.0129,0.897,-0.0893,-0.186,-0.0387
SPHK2,SID56478885,1.19,1,-0.116,-0.205,0.0584
RFK,SID152154046,-0.41,0.863,-0.0872,-0.191,-0.053
TTBK2,SID152155925,-0.622,0.845,-0.197,-0.0763,0.00122
JAK1,SID152154758,1.19,1,-0.0574,-0.097,0.0439
CSK,SID56478490,0.858,0.971,-0.0883,-0.192,-0.0285
DMPK,SID135620855,-0.553,0.851,-0.0732,-0.119,-0.0451
BRSK1,SID135620852,0.899,0.975,-0.108,-0.211,0.0404
ABL2,SID152153611,-0.539,0.852,-0.0705,-0.156,-0.148
DTYMK,SID135621237,0.185,0.914,-0.0882,-0.134,0.121
HK1,SID56479165,1.08,0.991,-0.0318,-0.264,0.0412
PRKAR2B,SID56479179,0.815,0.968,0.12,-0.0693,0.0146
ROS1,SID56478551,1.19,1,-0.054,-0.0417,0.0239
GRK4,SID152155634,-0.979,0.814,-0.0253,-0.0666,-0.0964
MAP4K1,SID56478699,-0.217,0.879,0.042,-0.12,0.0176
IRAK2,SID152151590,-0.582,0.848,-0.053,-0.294,0.0192
PRKAG3,SID56479232,-2.77,0.661,-0.0752,-0.0602,-0.143
FRK,SID56478519,1.19,1,-0.109,-0.109,0.058
CSNK1A1L,SID135620867,-1.3,0.787,-0.176,-0.274,-0.152
POLR2B,SID134315545,-4.86 (active),0.482,-0.0393,-0.0461,-0.0381
PRKD1,SID152147507,0.887,0.974,-0.0354,-0.0468,-0.026
BRAF,SID152153735,-1.87,0.738,0.148,0.0725,0.0249
AK1,SID152147390,-0.00402,0.898,-0.0395,-0.2,-0.0951

Limited to “viability z-score, siRNA alone” (4 entries from above):
MAPKAPK5 [SID56478947]	0.569
IRAK3 [SID56478864]	-1.4
IP6K3 [SID135621241]	-0.953
AK2 [SID56479162]	-0.206
